Measurements reported in PubChem BioAssay AID504793 (Drosophila RNAi Screening Center, 2011).
In all, the deposit lists about 23,000 reagents; shown is an unselected part of those with a known target gene and a result. In the full data, 62 (0.27%) are marked active. 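Calls come from follow-up tests whose scores are not deposited, so confirmed genes may have low counts here; counts are not normalised per plate.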 Raw values vary from plate to plate and are shown uncorrected. Names joined by + are all predicted targets of the reagent. Reagent sequences are not shown.

Test: 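Genes required for cells to halt at G2/M after double-strand DNA breaks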 (primary screen)
Cell system: Drosophila S2R+ cells
Reagent: long dsRNA against Drosophila genes, about 0.25 µg dsRNA per well
Timing: 4 days of dsRNA, then 4 hours of drug before read-out
Challenge: doxorubicin 0.5 µM for 4 hours to cause double-strand breaks, in cells also given a low, harmless dose of dsRNA against nbs to sensitise the assay
Measured: 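Mitotic index as the number of phospho-histone H3-positive cells in each well following doxorubicin, given as raw counts without normalisation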
Reading the numbers: mitotic cells: higher = more cells in mitosis, weaker G2 arrest
Call rule: 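Genes are called active only when high mitotic counts were reproduced with independent dsRNAs and mitosis was checked for delay without damage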
Calls: active = confirmed in follow-up tests; inactive = not confirmed

gene knocked down	DRSC id	mitotic cells, replicate 1	mitotic cells, replicate 2	Call
CG1075 (retired record)	DRSC12144	5		inactive
mRpS18A	DRSC14369	9		inactive
CG6788	DRSC20007	15		inactive
CG6788	DRSC24906	10		inactive
Trm7-32	DRSC15741	2		inactive
Cyp313a5	DRSC16628	9		inactive
Mo25	DRSC11224	4		inactive
CG7214	DRSC03028	11		inactive
CG7214	DRSC21869	14		inactive
CG7214	DRSC29482			inactive
BomS1	DRSC22678	8		inactive
Dcp-1	DRSC04609	2		inactive
TTLL12	DRSC06555	7		inactive
sano	DRSC06165	6		inactive
sano	DRSC26307	4		inactive
CG14219	DRSC19576	17		inactive
CG14219	DRSC26450	11		inactive
Gasz	DRSC06829	3		inactive
Gasz	DRSC27833	2		inactive
CG7601	DRSC14131	9		inactive
CG16904	DRSC15161	1		inactive
CG16904	DRSC25306	12		inactive
CG14572	DRSC11733	16		inactive
CG14441	DRSC24967	9		inactive
Cpr67Fa1 + Cpr67Fa2	DRSC28050	2		inactive
CG7992	DRSC20070	5		inactive
CG4053	DRSC15538	13		inactive
CG4053	DRSC29364	2		inactive
Snx21	DRSC00564	4		inactive
Snx21	DRSC28493	5		inactive
CG14185	DRSC10184	8		inactive
Sidpn	DRSC02056	5		inactive
CG9519	DRSC20195	3		inactive
CG9519	DRSC28137	8		inactive
CG6569	DRSC16067	7		inactive
CG31445	DRSC14443	8		inactive
CG31445	DRSC28642	6		inactive
CG42634 + CG42635	DRSC02450	7		inactive
MTF-1	DRSC11217	11		inactive
MTF-1	DRSC21341	10		inactive
mal	DRSC20581	3		inactive
mal	DRSC27085	3		inactive
betaNACtes1	DRSC19534	11		inactive
betaNACtes1	DRSC26176	5		inactive
Elovl7	DRSC15452	4		inactive
Elovl7	DRSC21570	14		inactive
Elovl7	DRSC25259	4		inactive
Snap24	DRSC16864	1		inactive
CG17593	DRSC00504	3		inactive
CG17593	DRSC27490	6		inactive
Lim3	DRSC23034	12		inactive
Lim3	DRSC28555	1		inactive
sog	DRSC20379	12		inactive
Rsph9	DRSC01594	6		inactive
Rsph9	DRSC25908	5		inactive
rno	DRSC08584	10		inactive
CG31809	DRSC01561	7		inactive
Tango2	DRSC19394	6		inactive
Tango2	DRSC21526	6		inactive
CG3436	DRSC00605	5		inactive
CG33191 + Pif1B	DRSC12706	5		inactive
l(2)27Cb (retired record)	DRSC02758	1		inactive
CG4572	DRSC15603	15		inactive
Atac1	DRSC03155	4		inactive
Nop56	DRSC14699	14		inactive
ND-49L	DRSC14437	13		inactive
ND-49L	DRSC27894	12		inactive
lds	DRSC16988	2		inactive
kmg	DRSC02829	5		inactive
hdm	DRSC18013	15		inactive
CycY	DRSC02420	7		inactive
CycY	DRSC25092	4		inactive
heph	DRSC14082	9		inactive
heph	DRSC14085	2		inactive
heph	DRSC16783	10		inactive
heph	DRSC39131	10		inactive
COX7B	DRSC10895	4		inactive
Top1	DRSC20295	7		inactive
Alp1	DRSC11781	7		inactive
sac	DRSC12237	8		inactive
sac	DRSC27045	3		inactive
CG30154	DRSC05889	9		inactive
CG30154	DRSC26172	1		inactive
CG6893	DRSC10742	4		inactive
mdu	DRSC23192	10		inactive
mdu	DRSC28604	3		inactive
CG8065	DRSC10959	1		inactive
Wsck	DRSC13682	14		inactive
Wsck	DRSC28781	6		inactive
Rpe	DRSC06407	7		inactive
CG17549	DRSC02625	6		inactive
CG32021 (retired record)	DRSC17206	17		inactive
CG32021 (retired record)	DRSC23926	8		inactive
CG14106	DRSC10109	4		inactive
CG32213 + CG12519 + 825-Oak + 1 more	DRSC09615	4	20	inactive
Gen	DRSC09679	3		inactive
SIFaR	DRSC13467	2		inactive
SIFaR	DRSC14266	6		inactive
CG10068	DRSC12508	9		inactive
l(2)03659	DRSC07269	10		inactive
l(2)03659	DRSC07638	9		inactive
lqfR	DRSC14703	7		inactive
lqfR	DRSC14704	6		inactive
lqfR	DRSC25247	8		inactive
Pal1 + Pdrg1	DRSC06587	7		inactive
COX5B	DRSC02115	6		inactive
CG7011	DRSC09347	6		inactive
CG7011	DRSC28334	5		inactive
drn	DRSC15147	6		inactive
mEFTu2	DRSC06163	4		inactive

Entries above whose target name starts with L or l:
gene knocked down	DRSC id	mitotic cells, replicate 1	mitotic cells, replicate 2	Call
Lim3	DRSC23034	12		inactive
Lim3	DRSC28555	1		inactive
l(2)27Cb (retired record)	DRSC02758	1		inactive
lds	DRSC16988	2		inactive
l(2)03659	DRSC07269	10		inactive
l(2)03659	DRSC07638	9		inactive
lqfR	DRSC14703	7		inactive
lqfR	DRSC14704	6		inactive
lqfR	DRSC25247	8		inactive
